According to publication PMC4409120:
No constants are given. Whether binding was seen depends on the method and setting. Binding seen in cells or lysates may run through a third protein. Some binding calls cover weakened binding; strength is not graded here.

T1: endogenous TRAF6 of primary CD8+ CTLs (mouse (endogenous in OT-I CD8+ CTLs)) (UniProt P70196)
T1 sequence: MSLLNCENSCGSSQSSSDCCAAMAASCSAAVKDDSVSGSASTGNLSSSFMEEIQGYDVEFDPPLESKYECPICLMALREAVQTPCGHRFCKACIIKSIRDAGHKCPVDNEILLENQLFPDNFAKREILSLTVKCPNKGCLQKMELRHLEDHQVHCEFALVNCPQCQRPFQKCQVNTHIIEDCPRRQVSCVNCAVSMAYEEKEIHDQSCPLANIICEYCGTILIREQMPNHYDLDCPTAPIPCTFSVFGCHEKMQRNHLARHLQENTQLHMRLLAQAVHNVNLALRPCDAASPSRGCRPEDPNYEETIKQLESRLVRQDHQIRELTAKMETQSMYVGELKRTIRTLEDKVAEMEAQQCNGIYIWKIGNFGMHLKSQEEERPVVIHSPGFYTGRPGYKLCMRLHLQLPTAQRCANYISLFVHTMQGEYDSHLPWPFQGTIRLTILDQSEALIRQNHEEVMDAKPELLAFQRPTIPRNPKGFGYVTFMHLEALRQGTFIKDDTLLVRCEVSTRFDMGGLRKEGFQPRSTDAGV


Target: T1, endogenous TRAF6 of primary CD8+ CTLs (mouse (endogenous in OT-I CD8+ CTLs))
Assay: co-IP

| Binder | binding |
| --- | --- |
| endogenous ADAP of primary CD8+ CTLs (protein, UniProt O35601 1-819) MAKFNTGSNPTEEAATSSRPFKVAGQSSPSGIQSRKNLFDNQGNASPPAGPSSMPKFGTTKPPLAAKPTYEEKPEKEPKPPFLKPTGGSPRFGTQPNSVSRDPEVKVGFLKPVSPKPTSLTKEDSKPVVLRPPGNKLHNLNQESDLKTPGPKPGPAPPVPENELKPGFSKVAGAKSKFMPAAQDTDSKPRFPRHTFGQKPSLSTEDSQEENTSKNVPVQKGSPVQLGAKSKGAPFKPPKEDPEDKDHGAPSSPFPGVVLKPAASRGSPGLSKNFEEKKEDRKTDLAKNIFLNKLNQEEPARFPKAPSKLTAGTPWGQSQEKEGDKNSATPKQKALPPLSVLGPPPPKPNRPPNVDLTRFRKADSANSATKSQTPYSTTSLPPPPPTHPASQPPLPASHPAHPPVPSLPPRNIKPPLDLKHPINDENQDGVMHSDGTGNLEEEQESEGETYEDIDSSKERDKKREKEEKKRLELERKEQKEREKKEQELKKKFKLTGPIQVIHHAKACCDVKGGKNELSFKQGEDIEIIRITDNPEGKWLGRTARGSYGYIKTTAVEIDYDSLKRKKNSLNAVPPRLVEDDQDVYDDVAEQDAPNSHGQSGSGGMFPPPPTDDEIYDGIEEEDDDDGSVPQVDEKTNAWSWGILKMLKGKDDRKKSIREKPKVSESDNNEGSSLPSQHKQLDVGEEVYDDVDASDFPPPPAEMSQGMSVGRAKTEEKDPKKLKKQEKEEKDLRKKFKYDGEIRVLYSTKVASSLTSKKWGARDLQIKPGESLEVIQSTDDTKVLCRNEEGKYGYVLRSYLVDNDGEIYDDIADGCIYDND | binds |
| endogenous TAK1 of primary CD8+ CTLs (protein, UniProt Q62073 1-579) MSTASAASSSSSSSASEMIEAPSQVLNFEEIDYKEIEVEEVVGRGAFGVVCKAKWRAKDVAIKQIESESERKAFIVELRQLSRVNHPNIVKLYGACLNPVCLVMEYAEGGSLYNVLHGAEPLPYYTAAHAMSWCLQCSQGVAYLHSMQPKALIHRDLKPPNLLLVAGGTVLKICDFGTACDIQTHMTNNKGSAAWMAPEVFEGSNYSEKCDVFSWGIILWEVITRRKPFDEIGGPAFRIMWAVHNGTRPPLIKNLPKPIESLMTRCWSKDPSQRPSMEEIVKIMTHLMRYFPGADEPLQYPCQYSDEGQSNSATSTGSFMDIASTNTSNKSDTNMEQVPATNDTIKRLESKLLKNQAKQQSESGRLSLGASRGSSVESLPPTSEGKRMSADMSEIEARIVATAGNGQPRRRSIQDLTVTGTEPGQVSSRSSSPSVRMITTSGPTSEKPARSHPWTPDDSTDTNGSDNSIPMAYLTLDHQLQPLAPCPNSKESMAVFEQHCKMAQEYMKVQTEIALLLQRKQELVAELDQDEKDQQNTSRLVQEHKKLLDENKSLSTYYQQCKKQLEVIRSQQQKRQGTS | binds |
